Reference: PubChem BioAssay (Tox21)
“And” between values parts separate entries of the source, which are not always exact repeats. Identical values can stand only once. This list was built around the results that the source calls inconclusive (neither active nor inactive); the mix of calls is not that of the screen. Potencies of inconclusive entries are doubtful fits and often do not repeat. The source made the active and inactive calls. The call rests on the fitted dose curve; in most records, active means well fitted inhibition curve with a large enough effect in the repeat runs; inconclusive means weak or mixed curves; inactive means no such curve, though single readings can be large or run the other way.

Amino acid sequences for entries named in this document (tags omitted).
UniProt P11712, whole entry, looked up: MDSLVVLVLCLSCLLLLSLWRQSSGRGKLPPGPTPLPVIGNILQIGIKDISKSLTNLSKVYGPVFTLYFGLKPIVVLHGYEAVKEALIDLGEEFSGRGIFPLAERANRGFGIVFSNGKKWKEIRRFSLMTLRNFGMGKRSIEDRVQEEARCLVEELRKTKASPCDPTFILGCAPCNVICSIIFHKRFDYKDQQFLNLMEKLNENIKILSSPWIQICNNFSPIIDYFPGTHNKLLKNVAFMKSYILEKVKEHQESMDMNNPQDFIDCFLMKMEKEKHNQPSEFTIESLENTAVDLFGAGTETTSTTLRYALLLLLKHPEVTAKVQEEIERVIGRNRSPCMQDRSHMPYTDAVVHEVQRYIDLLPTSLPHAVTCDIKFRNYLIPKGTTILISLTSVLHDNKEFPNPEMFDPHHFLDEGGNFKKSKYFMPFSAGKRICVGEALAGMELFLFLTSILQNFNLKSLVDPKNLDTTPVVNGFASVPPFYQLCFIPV

biological target: Cytochrome P450 2C9 (Homo sapiens) (UniProt P11712); experiment: Cytochrome P450 Family 2 Subfamily C Member 9 (CYP2C9) small molecule antagonists: luciferase reporter qHTS assay (AID 1671198); conditions: P450-Glo CYP2C9 enzyme assay, luciferin luminescence; series mostly up to 115 µM; activity change, negative = inhibition: at the top concentration; further: nearly all actives have a fitted effect of over 50% in size
From the text: U.S. Tox21 Program National Center for Advancing Translational Sciences [NCATS] U.S. Environmental Protection Agency [EPA] National Institutes of Environmental Health Sciences [NIEHS] National Toxicology Program [NTP] U.S. Food and Drug Administration [FDA] Tox21 Assay Overview: Cytochrome P450 (CYP) enzymes are membrane-bound hemeproteins that play a key role in metabolism of drugs and xenobiotics. Evaluation of the effect of chemicals on CYP isozymes is useful to minimize the adverse drug reactions and toxicities in drug development process. Tox21 chemicals were tested for their effect on CYP enzyme activities by using P450-Glo (TM) screening systems (Promega Corporation, Madison, WI). These systems provide a luminescent method containing proluciferin substrates and are converted to luciferin products by CYP isozymes. The luciferin products formed are detected with a luciferin detection reagent, and the amount of light produced is proportional to CYP activity. P450-Glo (TM) CYP2C9 screening system (Catalog. No. V9790) was used to detect the compounds that interfere in CYP2C9 activity.
Tox21 Assay Protocol Summary: Two ul of enzyme-substrate mix was dispensed into medium binding white/solid 1536-well plates (Greiner Bio-One North America Inc., Monroe, NC) using a BioRaptr Flying Reagent Dispenser (FRD, Beckman Coulter, Brea, CA). […] The assay plates were incubated at room temperature for 10 min. Then 2 ul of NADPH regeneration solution was added to each well of the assay plates using an FRD and incubated at 37C for 1 h. The reaction was stopped by adding 4 ul of detection reagent using an FRD and after 20 min incubation at room temperature the luminescence signal was measured using a ViewLux plate reader (Perkin Elmer, Shelton, CT). Data were expressed as relative luminescence units.
On the % scale 0 is the no-effect control and ±100 the full control effect; potency means the concentration at half of the fitted maximal effect.

| SMILES | Potency | activity change, negative = inhibition |
| --- | --- | --- |
| CCOP(=O)(OCC)Oc1ccc([N+](=O)[O-])cc1 | inconclusive: 44.8 µM [inhibitor, partial curve] |  |
| O=[N+]([O-])c1ccc(Cl)c(Cl)c1Cl |  | inactive: -5.24% |
| CCOC(=O)[C@]1(c2ccccc2)Oc2ccccc2[C@@H]1N | inconclusive: 39.9 µM [inhibitor, partial curve] |  |
| ClC1=C(Cl)[C@]2(Cl)[C@@H]3[C@H]4C[C@H]([C@@H]5O[C@H]45)[C@@H]3[C@@]1(Cl)C2(Cl)Cl | inconclusive: 7.1 µM [inhibitor, full curve] |  |
| O=C(O)C1C2CCC(O2)C1C(=O)O (stereo not given) | inconclusive: 71.9 µM [inhibitor, partial curve, poor fit] |  |
| Oc1cc(Cl)cc(Cl)c1 | inconclusive: 80.5 µM [inhibitor, single point] |  |
| CCCCNC(=O)n1c(NC(=O)OC)nc2ccccc21 | inconclusive: 70.6 µM [inhibitor, partial curve] and inconclusive: 71 µM [inhibitor, partial curve, poor fit] |  |
| ClC1=C(Cl)[C@]2(Cl)[C@@H]3[C@@H]4C[C@@H]([C@H]5O[C@@H]45)[C@@H]3[C@@]1(Cl)C2(Cl)Cl | inconclusive: 16.8 µM [inhibitor] |  |
| Oc1cc(Cl)c(Cl)cc1Cl | inconclusive: 89.4 µM [inhibitor, single point] |  |
| C#CCOS(=O)OC1CCCCC1Oc1ccc(C(C)(C)C)cc1 (stereo not given) | active: 503 nM and active: 502 nM |  |
| COP(=O)(OC)OC=C(Cl)Cl | inconclusive: 80.5 µM [inhibitor, partial curve, poor fit] and inconclusive: 34.5 µM [inhibitor] and inactive |  |
| Sc1ccccc1 | active: 56.4 µM [middle of 4 runs] |  |
| Nc1nc(N)nc(NC2CC2)n1 | inactive |  |
| CCC(C)c1ccc(O)cc1 (stereo not given) | inconclusive: 28.5 µM [inhibitor, full curve] and inconclusive: 44.8 µM [inhibitor, partial curve] |  |
| OC(c1ccc(Cl)cc1)(c1ccc(Cl)cc1)C(Cl)(Cl)Cl | active: 5.03 µM |  |
| S=C=Nc1cccc2ccccc12 | active: 4.98 µM |  |
| Cc1nnc2n1-c1sc(CCc3ccc(CC(C)C)cc3)cc1C(c1ccccc1Cl)=NC2C (stereo not given) | active: 27.5 µM |  |
| COP(=S)(NC(C)C)Oc1ccc(C)cc1[N+](=O)[O-] (stereo not given) | active: 2.52 µM |  |
| O=C1C2CC=CCC2C(=O)N1SC(Cl)(Cl)Cl (stereo not given) | active: 31.6 µM and active: 4.94 µM |  |
| CCC(C)(C)c1ccc(O)cc1 | inconclusive: 17.4 µM [inhibitor, partial curve] |  |

| SMILES | Potency | activity change, negative = inhibition |
| --- | --- | --- |
| Cc1cc(-c2ccc(N)c(C)c2)ccc1N | active: 15.9 µM [middle of 4 runs] |  |
| COC(=O)C(c1ccccc1)C1CCCCN1 (stereo not given) | inconclusive: 79.7 µM [inhibitor, partial curve, poor fit] |  |
| CC(=O)C(Cl)(Cl)Cl | active: 15.3 µM |  |
| CCOP(=O)(NC(C)C)Oc1ccc(SC)c(C)c1 (stereo not given) | active: 11.9 µM |  |
| C[C@H]1CCCC(=O)CCC/C=C/c2cc(O)cc(O)c2C(=O)O1 | active: 4.84 µM and active: 7.34 µM |  |
| Nc1ccc(Cl)cc1N | inconclusive: 33 µM [inhibitor, partial curve] and active: 32.6 µM |  |
| ClC1=C(Cl)C2(Cl)C3C(Cl)C(Cl)CC3C1(Cl)C2(Cl)Cl (stereo not given) | active: 31.6 µM and active: 20 µM |  |
| CC(C)=CC1C(C(=O)OC(C#N)c2cccc(Oc3ccccc3)c2)C1(C)C (stereo not given) | active: 10 µM |  |
| ClC1=C(Cl)C2(Cl)C(CBr)CC1(Cl)C2(Cl)Cl (stereo not given) | inconclusive: 35.6 µM [inhibitor, partial curve] and inactive |  |
| O=C(O)c1ccc2[nH]cc(CCCCN3CC=C(c4ccccc4)CC3)c2c1 |  | inactive: -9.24% [at 53 µM] |
| CCCCCCCCOC(=O)c1ccccc1C(=O)OCCCCCCCC | inconclusive: 35.5 µM [inhibitor, full curve] |  |
| Cc1ccc(OP(=O)(Oc2ccccc2)Oc2ccccc2)cc1 | active: 6.42 µM |  |
| O=C(O)COc1ccc(Cl)cc1 |  | inactive: -8.96% |
| Oc1ccc(-c2ccccc2)cc1 | active: 39.4 µM and inconclusive: 63.3 µM [inhibitor, partial curve] |  |
| CN1CSC(=S)N(C)C1 | inconclusive: 35.4 µM [inhibitor, full curve] |  |
| CC(=O)[O][Sn]([c]1ccccc1)([c]1ccccc1)[c]1ccccc1 | active: 0.894 µM |  |
| Cc1ccc2ccccc2c1 |  | inactive: -0.63% |
| O=[N+]([O-])c1cc(C(F)(F)F)c(Cl)c([N+](=O)[O-])c1Cl | active: 12.6 µM |  |
| CCN(N=O)C(N)=O | inconclusive: 69.7 µM [inhibitor, partial curve, poor fit] |  |
| Oc1ccc2ccc3cccc4ccc1c2c34 | active: 35.6 µM |  |
